Molecular target: T1, human GPR4 (Homo sapiens, UniProt P46093)
T1 construct: expressed in transfected cells
Assay: Cell-based assay for human GPR4 activity (pH-induced cAMP formation, HTRF)
Conditions: HeLa cells stably expressing human GPR4, pH-induced cAMP formation
Experimental: a) Cell-Based Assay for Human GPR4 Activity
HeLa cells stably expressing human GPR4 were established by transfecting the cells with a construct containing the human GPR4 coding sequence. The cells were grown in DMEM/HAM's F12 medium supplemented with 10% fetal calf serum (FCS), 100 u/ml penicillin, 100 μg/ml streptomycin and 400 μg/ml G418 and 10 mM Hepes pH 8.0. pH-induced formation of cAMP was determined using the HTRF technology as provided by CisBio Inc. The cells were seeded in 384-well plates and cultured for 24 hours at 37° C., 5% CO2 before performing the assay. Medium was removed and 10 μl buffer A (HBS, 10 mM Hepes, pH 8, 2 mM IBMX) was added. For compound testing, buffer A with 2× concentrated compounds was used. Cells were incubated for 15 min at room temperature. 10 μl buffer B (HBS, 30 mM Hepes, specific pH) was added to reach the appropriate final pH for stimulation (see below) and incubation was continued for 15 min at room temperature. […] HBS: 130 mM NaCl, 0.9 mM NaH2PO4, 5.4 mM KCl, 0.8 mM MgSO4, CaCl2 1.8 mM, 25 mM glucose, 10-30 mM Hepes. Adjustment of HBS buffers: Bf A Bf B Final stimulation pH (1 volume buffer A+1 volume buffer B)
Compounds were diluted from fresh stock solutions at 10 mM in DMSO to 2 mM and then used for serial dilutions in DMSO.

Chains of the proteins cited; added tags and fusions are not shown. Lines headed by an entry give the natural chain unless they say otherwise; changes in a name come on top.
UniProt P46093: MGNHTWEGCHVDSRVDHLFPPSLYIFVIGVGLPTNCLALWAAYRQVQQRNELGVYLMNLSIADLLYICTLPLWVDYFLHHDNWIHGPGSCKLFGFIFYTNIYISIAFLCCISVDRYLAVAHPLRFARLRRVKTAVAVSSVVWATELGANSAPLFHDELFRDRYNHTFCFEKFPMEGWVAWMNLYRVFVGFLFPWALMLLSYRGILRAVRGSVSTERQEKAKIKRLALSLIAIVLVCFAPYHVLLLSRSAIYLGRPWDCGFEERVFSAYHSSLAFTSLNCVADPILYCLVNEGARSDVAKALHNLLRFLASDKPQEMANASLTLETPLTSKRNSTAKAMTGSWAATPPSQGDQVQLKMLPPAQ

- IC50: 376 nM
Compound: CCc1nc2c(C)cc(C)nc2n1Cc1ccc(NC(=O)CCCCN2CCC(N(C)C)C2)cc1 (stereo not shown) [Example 103, 5-(3-Dimethylamino-pyrrolidin-1-yl)-pentanoic acid [4-(2-ethyl-5,7-dimethyl-imidazo[4,5-b]pyridin-3-ylmethyl)-phenyl]-amide]
